# According to the supplement of paper PMC7024190:
# Structures can show the parent of a compound that is named as a salt. Some of the results follow. Single values are uncertain here, since repeats match poorly.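 The cells were human embryonic kidney cells carrying a Renilla luciferase gene, driven by the HSV-TK promoter, on a plasmid put in briefly by transfection. This is the first-round screen of about ten thousand compounds, looking for ones that raise reporter output.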
# System: HEK 293FT
# Test: log relative Renilla luciferase luminescence (reporter expression vs reference, reference not stated) (log (base not stated)); higher = higher recombinant reporter expression
# Settings: 10 µM; time after transfection 48 h
row,SMILES,log
1,N#C/C(=C(/N)Sc1ccc(N)cc1)c1ccccc1C(F)(F)F,0.0106
2,CC1(C)C[C@@H]1C(=O)N/C(=C\CCCCSC[C@H](N)C(=O)O)C(=O)O [Cilastatin sodium],-0.0678
3,CS(=O)(=O)c1ccc(Cn2c3c(c4cc(F)cc(F)c42)CCCC3CC(=O)O)cc1 (stereo not given),0.117
4,CC(C)NCC(O)COc1ccc(CC(N)=O)cc1 (racemic) [(RS)-Atenolol],0.105
5,COc1ccc(CCN(C)CCCN2CCc3cc(OC)c(OC)cc3CC2=O)cc1OC [Zatebradine hydrochloride],0.0915
6,COC(=O)c1c(-c2cc(OC)c(OC)c(OC)c2)c2ccnc(OCc3ncccn3)c2c(=O)n1Cc1ccnc(C)c1 [T 0156 hydrochloride],0.0768
7,COc1nc(C)nc(Cl)c1NC1=NCCN1 [Moxonidine hydrochloride],-0.28
8,CC(C)(C=O)Cc1cc(C(C)(C)C)c(O)c(C(C)(C)C)c1,-0.0293
9,c1ccc(N2CCN(Cc3nc4ccccc4[nH]3)CC2)nc1 [ABT 724 trihydrochloride],0.031
10,Cc1cccc(C(=O)NCN2CCN(c3ccccc3C#N)CC2)c1,0.0863
11,O=C1OC(OC(=O)c2cccnc2Nc2cccc(C(F)(F)F)c2)c2ccccc21 (stereo not given) [Talniflumate],-0.137
12,CN1CCN2c3ccccc3Cc3ccccc3C2C1 (stereo not given) [Mianserin hydrochloride],-0.0198
13,O=C(Nc1ccccc1)C12CC1C(=NO)c1ccccc1O2 (stereo not given),-0.151
14,COc1ccc(OC)c2c(=S)c3ccccc3[nH]c12,-0.0381
15,N=C(N)NC(=O)c1nc(Cl)c(N)nc1N [Amiloride hydrochloride],-0.0747

# Ordered by length of the SMILES (ascending): some entries from above.
row,SMILES,log
15,N=C(N)NC(=O)c1nc(Cl)c(N)nc1N [Amiloride hydrochloride],-0.0747
1,N#C/C(=C(/N)Sc1ccc(N)cc1)c1ccccc1C(F)(F)F,0.0106
11,O=C1OC(OC(=O)c2cccnc2Nc2cccc(C(F)(F)F)c2)c2ccccc21 (stereo not given) [Talniflumate],-0.137
